Reference: patent publication US10095829B2, “Computer implemented methods of treating lung cancer” (WORLDWIDE INNOVATIVE NETWORK, priority 2009, dated 2018)
For at least one compound, name, drawing or mass did not settle the structure.

Test system: non-small cell lung carcinoma (NSCLC), cT4, N0, M1
Assay: Clinical course under treatment, patient of Example 1
Assay type: in vivo, human
Conditions: Example 1 patient

CCOc1cc2ncc(C#N)c(Nc3ccc(OCc4ccccn4)c(Cl)c3)c2cc1NC(=O)/C=C/CN(C)C [HKI 272]
Clinical outcome: efficient
